{
  "sequences": {"note": "By UniProt entry, the sequences of proteins in these tests, tags left out.", "UniProt Q96H22": "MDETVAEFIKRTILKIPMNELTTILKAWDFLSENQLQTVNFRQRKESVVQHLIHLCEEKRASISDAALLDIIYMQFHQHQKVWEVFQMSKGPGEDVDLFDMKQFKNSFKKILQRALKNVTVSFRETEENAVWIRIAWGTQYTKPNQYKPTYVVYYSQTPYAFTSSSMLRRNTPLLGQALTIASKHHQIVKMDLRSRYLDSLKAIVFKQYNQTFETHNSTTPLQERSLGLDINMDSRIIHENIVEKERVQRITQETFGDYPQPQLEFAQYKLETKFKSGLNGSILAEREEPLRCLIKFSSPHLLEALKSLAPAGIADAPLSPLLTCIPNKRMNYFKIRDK", "UniProt P31749": "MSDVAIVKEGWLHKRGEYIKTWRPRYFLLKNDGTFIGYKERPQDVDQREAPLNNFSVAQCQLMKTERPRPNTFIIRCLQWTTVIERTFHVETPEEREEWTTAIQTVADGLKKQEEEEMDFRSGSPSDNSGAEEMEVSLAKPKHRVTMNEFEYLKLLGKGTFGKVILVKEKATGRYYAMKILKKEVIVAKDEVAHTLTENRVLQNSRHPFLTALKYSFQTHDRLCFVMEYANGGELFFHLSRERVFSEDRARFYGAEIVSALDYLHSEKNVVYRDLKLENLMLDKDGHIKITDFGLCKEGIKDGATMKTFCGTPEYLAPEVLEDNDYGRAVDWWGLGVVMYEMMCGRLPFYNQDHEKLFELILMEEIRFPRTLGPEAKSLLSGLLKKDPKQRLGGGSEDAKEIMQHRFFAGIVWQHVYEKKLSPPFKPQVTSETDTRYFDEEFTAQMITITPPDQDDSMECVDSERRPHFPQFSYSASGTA"},
  "source": "paper PMC8662847",
  "target": "GST-CENP-N fusion protein (human) (UniProt Q96H22)",
  "assay": "pull-down; 500 ug of GST or GST-CENP-N mixed 3 h with glutathione-agarose resin, then 500 ug of His-AKT1 protein overnight; SDS-PAGE, blots with anti-GST and anti-His",
  "note": "These are yes or no findings as the source states them, for the method shown. In cells and extracts the contact can be indirect. Some binding calls cover weakened binding; strength is not graded here.",
  "data": [
    {"substance": "His-AKT1 fusion protein (from UniProt P31749 1-480)", "values": [
      {"measurement": "binding", "result": "binds"}
    ]}
  ]
}
